The text below walks through data of patent US20190145976A1 (GOVERNING COUNCIL OF THE UNIVERSITY OF TORONTO, published 2019).

For test [1], the target named is extracellular domain of murine αKlotho (A35 to K982) with a C-terminal FLAG tag (mouse). Nature of the test: Fab-phage ELISA on immobilised antigen, HRP-conjugated anti-phage antibody, absorbance at 450 nm.
The target is the same in test [2]. Nature of the test: Fab-phage ELISA on immobilised antigen.

These are yes or no findings as the source states them, for the method shown. Binding can be weak; no strength is given.

B1: sb106 Fab-phage (Fab, V domains shown)
VH: EVQLVESGGGLVQPGGSLRLSCAASGFNISYYSIHWVRQAPGKGLEWVAYISPSYGYTSYADSVKGRFTISADTSKNTAYLQMNSLRAEDTAVYYCARYYVYASHGWAGYGMDYWGQGTLVTVSS
VL: DIQMTQSPSSLSASVGDRVTITCRASQSVSSAVAWYQQKPGKAPKLLIYSASSLYSGVPSRFSGSRSGTDFTLTISSLQPEDFATYYCQQAGYSPITFGQGTKVEIKR
notes: also called sb106-phage; Sb106-phage
As for B1, the binding result in test [1] and in test [2] was “binds” each time.
